For one molecule, FRET efficiency results are on record in patent US20090098596A1, “PHOTOSTABLE FRET-COMPETENT BIARSENICAL-TETRACYSTEINE PROBES BASED ON FLUORINATED FLUORESCEINS” (priority 2006, published 2009).

The data set has as its system streptavidin. In words: FRET titration of streptavidin-bound F2FlAsH-P12-biotin with F4FlAsH-P12-biotin. The note with it: donor F2FlAsH-biotin-P12 on streptavidin, acceptor F4FlAsH peptide, at saturation of free sites.

In turn, `O=C1OC2(c3ccccc31)c1cc(F)c(O)c([As]3SCCS3)c1Oc1c2cc(F)c(O)c1[As]1SCCS1` [F2FlAsH, 4′,5′-Bis(1,2,3-dithioarsolan-2-yl)-2′,7′-difluorofluorescein] came in with an FRET efficiency of 0.34.
